Source: the supplement of paper PMC3334620
Whole data set: some 33,000 sequences, median “E-score (-0.5 to 0.5)” near -0.0034, cut for the highest 2% near 0.25. The list shows a part of the results.

Each sequence was assayed against T1, Yap3 (UniProt P38749) (assay: PBM E-score (8-mer binding enrichment) (E-score (-0.5 to 0.5)); higher = stronger / more preferred TF binding). Details: protein concentration: 100 nM; construct: GST-full length.
T1 sequence: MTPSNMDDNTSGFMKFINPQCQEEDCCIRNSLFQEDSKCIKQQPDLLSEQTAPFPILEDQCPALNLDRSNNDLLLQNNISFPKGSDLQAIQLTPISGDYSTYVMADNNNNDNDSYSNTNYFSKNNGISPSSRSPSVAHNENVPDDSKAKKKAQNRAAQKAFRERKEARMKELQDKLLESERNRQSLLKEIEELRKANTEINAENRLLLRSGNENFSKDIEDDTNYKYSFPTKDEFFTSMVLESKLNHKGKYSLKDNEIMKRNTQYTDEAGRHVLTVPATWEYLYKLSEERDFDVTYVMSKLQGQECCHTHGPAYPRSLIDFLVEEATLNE
Description: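 Universal 'all 10-mer' protein binding microarrays (Agilent AMADID 015681) probed with GST-tagged S. cerevisiae TFs (full-length or DBD) made by in vitro transcription/translation (PURExpress), about 100-200 nM. Bound TF was detected with fluorescent anti-GST. Each ungapped 8-mer (which stands for itself and its reverse complement) is scored by the PBM enrichment score (E-score), a modified Wilcoxon-Mann-Whitney statistic from -0.5 to +0.5, computed with the Universal PBM Analysis Suite. Scale: above 0.35 generally sequence-specific binding.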

Sequence	PBM E-score
AAACCCCC	-0.429
AGAGGAAT	-0.0217
CAGTTCTC	-0.0168
GATGCGTA	0.0238
ATGCCCTG	-0.148
CAAGCTTG	-0.132
ACCTTCTG	0.103
GAGTTCCC	-0.198
AGAGTATA	0.0253
ATGAGCCG	-0.00302
CTGAGTGA	0.0954
AGTAGATC	-0.0265
CAACAGTA	-0.0872
AATATTCA	0.223
AAGTCCCA	-0.148
AAAGAAAT	0.26
CACTTACA	0.179
CCCTATCC	-0.244
GCTGTCGA	-0.237
ACCGACAA	-0.0157
AAAAAGCG	0.162
GGGGCTCA	-0.352

Sequence	PBM E-score
AATTTCAT	0.152
CGGGACCA	-0.252
ATTCCCCG	0.0897
CACTGCTG	-0.149
CATTTGAG	0.0533
GCCCCACA	-0.145
AACAAGCC	-0.111
AAAGAGCG	0.0786
CGTCCTTA	-0.0264
GCTATTCC	-0.0279
GCGGGTCC	-0.272
TCGAACAA	0.171
CGTGGGAC	-0.142
CTGGCTCA	-0.034
AATATAGG	0.25
CTCCACGA	-0.1
ATGCCTTG	-0.119
CCAGGGCG	-0.337
GAATTGAC	0.0879
GAAGGAGC	-0.349
ACATCTGG	0.00951
CATATTCG	0.123

Quoted from above (2 entries):
Sequence	PBM E-score
CTGGCTCA	-0.034
AATATAGG	0.25

Pulled one by one from the list above (4):
Sequence	PBM E-score
ATGCCTTG	-0.119
ATTCCCCG	0.0897
AAAGAGCG	0.0786
TCGAACAA	0.171

More entries

Sequence	PBM E-score
GTAGACAA	0.117
GCGTATAA	0.116
GAGTGCTA	0.0381
AACTCCGG	0.0615
CGCGCTCC	-0.00749
CTGATCCA	0.141
ACATCAAG	0.0345
ATCTATAG	0.0968
ACGGTATG	0.0829
AGTTACCG	0.127
ATCGCTAC	-0.00901
AAATCAAA	0.253
TGAACCAA	0.148
AGTTTGTC	0.0159
GAGGGGAA	-0.0796
ACGTACTA	0.191
CGATTCTC	0.0246
GCGCTCCA	-0.112
GACCCGCA	-0.215
CCTACTCC	-0.103
ATTCTTGG	0.0825
ATTAAACC	0.0492

Sequence	PBM E-score
ACGGGCCC	-0.184
CGGACGAA	0.214
GGACTTGA	-0.193
GGCCCACC	-0.185
ATCAATGA	0.202
AGACCCCT	-0.248
CCTACGAA	0.037
GAAGGTCA	-0.0941
CCGTTCAC	-0.0817
CACCGGTG	0.0119
CGACGGAG	0.0855
ATTGATGG	0.149
GAATCTCC	-0.0919
CCCTTCTC	-0.295
CGCATCGC	-0.319
CCGAAAGA	-0.00023
CTTGTGTA	0.147
ACCTCCTC	-0.145
CGACACTC	0.0838
GACAATAA	0.219
